PubChem BioAssay AID1508597 | Cure First – 2020
Purpose: 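Genes whose silencing sensitises or protects ovarian cancer cells against rucaparib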 (primary screen). System: human ovarian carcinoma lines grown from tumours: OCI-P5x (papillary serous) and OCI-C5x (clear cell). Reagent: siRNA pool against human genes, 1.25 pmol siRNA per well. Duration: 72 h or 96 h, depending on the cell culture. Treatment: rucaparib 20 µM (about IC30) or vehicle, present until read-out. Rucaparib or vehicle: Vehicle. Cell line: OCI-P5x (serous). Detection: 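Luminescent ATP-based viability assay read 72 or 96 h after transfection, depending on culture, given as normalised percent viability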. Reading the numbers: viability, normalised: higher = more viable cells remaining. Active means: 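Active when normalised viability falls below 80 percent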. Meaning of the calls: active = viability under 80%; inactive = viability 80% or more.
Shown is an unselected part of the about 2,100 reagents, in one setting of the screen. 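Calls flag viability under 80% in either arm, not effects specific to rucaparib; the reference for percent is not stated.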 A reagent listed more than once was tested more than once; the source does not tell the runs apart. No sequences are given here. The record does not give: the 100% reference.

gene knocked down	technical replicate	viability, normalised (%)	activity call
SULF2 (sulfatase 2)	1	69.6	active
SULF2 (sulfatase 2)	2	68.3	active
SULF2 (sulfatase 2)	3	71.5	active
NLK (nemo like kinase)	1	96.5	inactive
NLK (nemo like kinase)	2	83.2	inactive
NLK (nemo like kinase)	3	82	inactive
PDE3A (phosphodiesterase 3A)	1	71.1	active
PDE3A (phosphodiesterase 3A)	2	71.7	active
PDE3A (phosphodiesterase 3A)	3	74.7	active
SMYD5 (SMYD family member 5)	1	71	active
SMYD5 (SMYD family member 5)	2	72.9	active
SMYD5 (SMYD family member 5)	3	72.2	active
POT1 (protection of telomeres 1)	1	62.1	active
POT1 (protection of telomeres 1)	2	45.6	active
POT1 (protection of telomeres 1)	3	48.3	active
MCCC1 (methylcrotonyl-CoA carboxylase subunit 1)	1	83.7	inactive
MCCC1 (methylcrotonyl-CoA carboxylase subunit 1)	2	84.8	inactive
MCCC1 (methylcrotonyl-CoA carboxylase subunit 1)	3	83.7	inactive
KDR (kinase insert domain receptor)	1	56.6	active
KDR (kinase insert domain receptor)	2	68.7	active
KDR (kinase insert domain receptor)	3	75.1	active
EEF1E1 (eukaryotic translation elongation factor 1 epsilon 1)	1	103	inactive
EEF1E1 (eukaryotic translation elongation factor 1 epsilon 1)	2	97.6	inactive
EEF1E1 (eukaryotic translation elongation factor 1 epsilon 1)	3	95.6	inactive
TP53RK (TP53 regulating kinase)	1	75.8	active
TP53RK (TP53 regulating kinase)	2	65.2	active
TP53RK (TP53 regulating kinase)	3	69.9	active
SAFB (scaffold attachment factor B)	1	70.6	active
SAFB (scaffold attachment factor B)	2	61.1	active
SAFB (scaffold attachment factor B)	3	80.3	inactive
BLNK (B cell linker)	1	32.5	active
BLNK (B cell linker)	2	54.8	active
BLNK (B cell linker)	3	52.7	active
SCYL2 (SCY1 like pseudokinase 2)	1	83.2	inactive
SCYL2 (SCY1 like pseudokinase 2)	2	70.1	active
SCYL2 (SCY1 like pseudokinase 2)	3	68.9	active
BAIAP2 (BAR/IMD domain containing adaptor protein 2)	1	77.4	active
BAIAP2 (BAR/IMD domain containing adaptor protein 2)	2	62.8	active
BAIAP2 (BAR/IMD domain containing adaptor protein 2)	3	74.6	active

8 of these entries, reformatted:
SAFB (scaffold attachment factor B), technical replicate 1 → viability, normalised (%): 70.6; activity call: active
SAFB (scaffold attachment factor B), technical replicate 2 → viability, normalised (%): 61.1; activity call: active
SAFB (scaffold attachment factor B), technical replicate 3 → viability, normalised (%): 80.3; activity call: inactive
BLNK (B cell linker), technical replicate 1 → viability, normalised (%): 32.5; activity call: active
BLNK (B cell linker), technical replicate 2 → viability, normalised (%): 54.8; activity call: active
BLNK (B cell linker), technical replicate 3 → viability, normalised (%): 52.7; activity call: active
SCYL2 (SCY1 like pseudokinase 2), technical replicate 1 → viability, normalised (%): 83.2; activity call: inactive
SCYL2 (SCY1 like pseudokinase 2), technical replicate 2 → viability, normalised (%): 70.1; activity call: active

The results go on.
gene knocked down	technical replicate	viability, normalised (%)	activity call
IFI6 (interferon alpha inducible protein 6)	1	44.6	active
IFI6 (interferon alpha inducible protein 6)	2	53.7	active
IFI6 (interferon alpha inducible protein 6)	3	47.8	active
NAP1L5 (nucleosome assembly protein 1 like 5)	1	49.7	active
NAP1L5 (nucleosome assembly protein 1 like 5)	2	45.9	active
NAP1L5 (nucleosome assembly protein 1 like 5)	3	83.8	inactive
PLK4 (polo like kinase 4)	1	80.7	inactive
PLK4 (polo like kinase 4)	2	78	active
PLK4 (polo like kinase 4)	3	70.9	active
ETF1 (eukaryotic translation termination factor 1)	1	52.8	active
ETF1 (eukaryotic translation termination factor 1)	2	37.9	active
ETF1 (eukaryotic translation termination factor 1)	3	53.9	active
GALK1 (galactokinase 1)	1	63.4	active
GALK1 (galactokinase 1)	2	65.3	active
GALK1 (galactokinase 1)	3	76	active
PLCZ1 (phospholipase C zeta 1)	1	65.8	active
PLCZ1 (phospholipase C zeta 1)	2	73.9	active
PLCZ1 (phospholipase C zeta 1)	3	67.7	active
URI1 (URI1 prefoldin like chaperone)	1	80	active
URI1 (URI1 prefoldin like chaperone)	2	80.2	inactive
URI1 (URI1 prefoldin like chaperone)	3	76.7	active
HDAC1 (histone deacetylase 1)	1	59.3	active
HDAC1 (histone deacetylase 1)	1	82.4	inactive
HDAC1 (histone deacetylase 1)	2	80.5	inactive
HDAC1 (histone deacetylase 1)	2	60.2	active
HDAC1 (histone deacetylase 1)	3	89	inactive
HDAC1 (histone deacetylase 1)	3	80.2	inactive
EIF5A2 (eukaryotic translation initiation factor 5A2)	1	62.7	active
EIF5A2 (eukaryotic translation initiation factor 5A2)	2	52.7	active
EIF5A2 (eukaryotic translation initiation factor 5A2)	3	60.5	active
BANP (BTG3 associated nuclear protein)	1	90.1	inactive
BANP (BTG3 associated nuclear protein)	2	108	inactive
BANP (BTG3 associated nuclear protein)	3	74.9	active
BPTF (bromodomain PHD finger transcription factor)	1	52.4	active
BPTF (bromodomain PHD finger transcription factor)	2	56.9	active
BPTF (bromodomain PHD finger transcription factor)	3	63.4	active
